# Experimental data taken from the supplement of paper PMC8728848.
# The other results are listed elsewhere or left out.
# Legend:
# Assay in all cases: glycan array binding signal (z-score within array); higher = stronger binding
# Conditions in all cases: glycan notation: IUPAC condensed, linker removed
# Fuc(a1-2)Gal = biological target: Fuc(a1-2)Gal
# Procedure, shortened: (§1)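 Columns mapping to the same glycan were averaged after glycan names were converted to IUPAC-condensed notation. The data come from 3228 arrays in the Consortium for Functional Glycomics database, limited to those with an available protein sequence. Binding is reported as a within-array Z-score averaged across arrays of one protein sequence and across linkers.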
# Fuc(a1-2)Gal(b1-3)GalNAc = biological target: Fuc(a1-2)Gal(b1-3)GalNAc
# Procedure, shortened: as §1
# [1] = biological target: Fuc(a1-2)Gal(b1-3)GalNAc(a1-3)[Fuc(a1-2)]Gal(b1-4)Glc
# Procedure, shortened: as §1
# [2] = biological target: Fuc(a1-2)Gal(b1-3)GalNAc(a1-3)[Fuc(a1-2)]Gal(b1-4)GlcNAc
# Procedure, shortened: as §1
# [3] = biological target: Fuc(a1-2)Gal(b1-3)GalNAc(b1-3)Gal
# Procedure, shortened: as §1
# [4] = biological target: Fuc(a1-2)Gal(b1-3)GalNAc(b1-3)Gal(a1-4)Gal(b1-4)Glc
# Procedure, shortened: as §1
# [5] = biological target: Fuc(a1-2)Gal(b1-3)GalNAc(b1-4)[Neu5Ac(a2-3)]Gal(b1-4)Glc
# Procedure, shortened: as §1
# Fuc(a1-2)Gal(b1-3)GlcNAc = biological target: Fuc(a1-2)Gal(b1-3)GlcNAc
# Procedure, shortened: as §1
# [6] = biological target: Fuc(a1-2)Gal(b1-3)GlcNAc(b1-2)Man(a1-3)[Fuc(a1-2)Gal(b1-3)GlcNAc(b1-2)Man(a1-6)]Man(b1-4)GlcNAc(b1-4)GlcNAc
# Procedure, shortened: as §1
# [7] = biological target: Fuc(a1-2)Gal(b1-3)GlcNAc(b1-2)Man(a1-3)[Fuc(a1-2)Gal(b1-3)GlcNAc(b1-2)Man(a1-6)]Man(b1-4)GlcNAc(b1-4)[Fuc(a1-6)]GlcNAc
# Procedure, shortened: as §1
# [8] = biological target: Fuc(a1-2)Gal(b1-3)GlcNAc(b1-3)Gal(b1-4)Glc
# Procedure, shortened: as §1
# [9] = biological target: Fuc(a1-2)Gal(b1-3)GlcNAc(b1-3)GalNAc
# Procedure, shortened: as §1
# [10] = biological target: Fuc(a1-2)Gal(b1-3)GlcNAc(b1-3)[Fuc(a1-2)Gal(b1-3)GlcNAc(b1-6)]GalNAc
# Procedure, shortened: as §1
# [11] = biological target: Fuc(a1-2)Gal(b1-3)GlcNAc(b1-3)[Gal(b1-4)GlcNAc(b1-6)]Gal(b1-4)Glc
# Procedure, shortened: as §1
# [12] = biological target: Fuc(a1-2)Gal(b1-3)GlcNAc(b1-3)[Neu5Ac(a2-6)Gal(b1-4)GlcNAc(b1-6)]Gal(b1-4)Glc
# Procedure, shortened: as §1
# [13] = biological target: Fuc(a1-2)Gal(b1-3)GlcNAc6S
# Procedure, shortened: as §1
# [14] = biological target: Fuc(a1-2)Gal(b1-3)[Fuc(a1-4)]GlcNAc
# Procedure, shortened: as §1
# [15] = biological target: Fuc(a1-2)Gal(b1-3)[Fuc(a1-4)]GlcNAc(b1-2)Man(a1-3)[Fuc(a1-2)Gal(b1-3)[Fuc(a1-4)]GlcNAc(b1-2)Man(a1-3)]Man(b1-4)GlcNAc(b1-4)GlcNAc
# Procedure, shortened: as §1
# [16] = biological target: Fuc(a1-2)Gal(b1-3)[Fuc(a1-4)]GlcNAc(b1-2)Man(a1-3)[Fuc(a1-2)Gal(b1-3)[Fuc(a1-4)]GlcNAc(b1-2)Man(a1-6)]Man(b1-4)GlcNAc(b1-4)[Fuc(a1-6)]GlcNAc(b1-4)[Fuc(a1-6)]GlcNAc
# Procedure, shortened: as §1
# [17] = biological target: Fuc(a1-2)Gal(b1-3)[Fuc(a1-4)]GlcNAc(b1-3)[Fuc(a1-3)[Gal(b1-4)]GlcNAc(b1-6)]Gal(b1-4)Glc
# Procedure, shortened: as §1
# [18] = biological target: Fuc(a1-2)Gal(b1-3)[Fuc(a1-4)]GlcNAc(b1-3)[Gal(b1-4)GlcNAc(b1-6)]Gal(b1-4)Glc
# Procedure, shortened: as §1
# [19] = biological target: Fuc(a1-2)Gal(b1-4)Fuc(a1-3)]GlcNAc(b1-2)Man(a1-3)[Fuc(a1-2)Gal(b1-4)[Fuc(a1-3)]GlcNAc(b1-2)Man(a1-6)]Man(b1-4)GlcNAc(b1-4)GlcNAc
# Procedure, shortened: as §1
# Fuc(a1-2)Gal(b1-4)Glc = biological target: Fuc(a1-2)Gal(b1-4)Glc
# Procedure, shortened: as §1
# Fuc(a1-2)Gal(b1-4)Glc6S = biological target: Fuc(a1-2)Gal(b1-4)Glc6S
# Procedure, shortened: as §1
# Fuc(a1-2)Gal(b1-4)GlcNAc = biological target: Fuc(a1-2)Gal(b1-4)GlcNAc
# Procedure, shortened: as §1
# [20] = biological target: Fuc(a1-2)Gal(b1-4)GlcNAc(b1-2)Man
# Procedure, shortened: as §1
# [21] = biological target: Fuc(a1-2)Gal(b1-4)GlcNAc(b1-2)Man(a1-3)[Fuc(a1-2)Gal(b1-4)GlcNAc(b1-2)Man(a1-6)]Man(b1-4)GlcNAc(b1-4)GlcNAc
# Procedure, shortened: as §1
# [22] = biological target: Fuc(a1-2)Gal(b1-4)GlcNAc(b1-2)Man(a1-3)[Fuc(a1-2)Gal(b1-4)GlcNAc(b1-2)Man(a1-6)]Man(b1-4)GlcNAc(b1-4)[Fuc(a1-6)]GlcNAc
# Procedure, shortened: as §1
# [23] = biological target: Fuc(a1-2)Gal(b1-4)GlcNAc(b1-2)[Fuc(a1-2)Gal(b1-4)GlcNAc(b1-4)]Man(a1-3)[Fuc(a1-2)Gal(b1-4)GlcNAc(b1-2)Man(a1-6)]Man(b1-4)GlcNAc(b1-4)GlcNAc
# Procedure, shortened: as §1
# [24] = biological target: Fuc(a1-2)Gal(b1-4)GlcNAc(b1-3)Gal(b1-4)GlcNAc
# Procedure, shortened: as §1
binder,measurement,setting,value
SabA (Helicobacter pylori) (protein) MGSSHHHHHHSSGLVPRGSHMENLYFQGEDNGFFVSAGYQIGEAVQMVKNTGELKNLNEKYEQLSQYLNQVASLKQSIQNANNIELVNSSLNYLKSFTNNNYNSTTQSPIFNAVQAVITSVLGFWSLYAGNYFTFFVGKKVGDSGQPASVQGNPPFKTIIENCSGIENCAMDQTTYDKMKKLAEDLQAAQTNSATKGNNLCALSGCAATDSTSNPPNSTVSNALNLAQQLMDLIANTKTAMMWKNIVISGVSNTSGAITSTNYPTQYAVFNNIKAMIPILQQAVTLSQSNHTLSASLQAQATGSQTNPKFAKDIYTFAQNQKQVISYAQDIFNLFNSIPAEQYKYLEKAYLKIPNAGSTPTNPYRQVVNLNQEVQTIKNNVSYYGNRVDAALSVARDVYNLKSNQAEIVTAYNDAKTLSEEISKLPHNQVNTKDIVTLPYDKNAPAAGQSNYQINPEQQSNLNQALAAMSNNPFKKVGMISSQNNNGA,glycan array binding signal (z-score),Fuc(a1-2)Gal,-0.009
same,glycan array binding signal (z-score),Fuc(a1-2)Gal(b1-3)GalNAc,-0.483
same,glycan array binding signal (z-score),[1],-0.405
same,glycan array binding signal (z-score),[2],0.026
same,glycan array binding signal (z-score),[3],-0.181
same,glycan array binding signal (z-score),[4],0.314
same,glycan array binding signal (z-score),[5],0.208
same,glycan array binding signal (z-score),Fuc(a1-2)Gal(b1-3)GlcNAc,-0.513
same,glycan array binding signal (z-score),[6],1.36
same,glycan array binding signal (z-score),[7],1.55
same,glycan array binding signal (z-score),[8],0.232
same,glycan array binding signal (z-score),[9],-1.08
same,glycan array binding signal (z-score),[10],-0.363
same,glycan array binding signal (z-score),[11],0.126
same,glycan array binding signal (z-score),[12],0.04
same,glycan array binding signal (z-score),[13],-0.047
same,glycan array binding signal (z-score),[14],-0.148
same,glycan array binding signal (z-score),[15],3.91
same,glycan array binding signal (z-score),[16],0.785
same,glycan array binding signal (z-score),[17],-0.216
same,glycan array binding signal (z-score),[18],0.025
same,glycan array binding signal (z-score),[19],0.327
same,glycan array binding signal (z-score),Fuc(a1-2)Gal(b1-4)Glc,0.228
same,glycan array binding signal (z-score),Fuc(a1-2)Gal(b1-4)Glc6S,0.21
same,glycan array binding signal (z-score),Fuc(a1-2)Gal(b1-4)GlcNAc,-0.378
same,glycan array binding signal (z-score),[20],0.056
same,glycan array binding signal (z-score),[21],0.326
same,glycan array binding signal (z-score),[22],2.49
same,glycan array binding signal (z-score),[23],0.41
same,glycan array binding signal (z-score),[24],-0.981

# Reprinted at random: 2 records from the list, in no set order.
binder,measurement,setting,value
SabA (Helicobacter pylori) (protein) MGSSHHHHHHSSGLVPRGSHMENLYFQGEDNGFFVSAGYQIGEAVQMVKNTGELKNLNEKYEQLSQYLNQVASLKQSIQNANNIELVNSSLNYLKSFTNNNYNSTTQSPIFNAVQAVITSVLGFWSLYAGNYFTFFVGKKVGDSGQPASVQGNPPFKTIIENCSGIENCAMDQTTYDKMKKLAEDLQAAQTNSATKGNNLCALSGCAATDSTSNPPNSTVSNALNLAQQLMDLIANTKTAMMWKNIVISGVSNTSGAITSTNYPTQYAVFNNIKAMIPILQQAVTLSQSNHTLSASLQAQATGSQTNPKFAKDIYTFAQNQKQVISYAQDIFNLFNSIPAEQYKYLEKAYLKIPNAGSTPTNPYRQVVNLNQEVQTIKNNVSYYGNRVDAALSVARDVYNLKSNQAEIVTAYNDAKTLSEEISKLPHNQVNTKDIVTLPYDKNAPAAGQSNYQINPEQQSNLNQALAAMSNNPFKKVGMISSQNNNGA,glycan array binding signal (z-score),Fuc(a1-2)Gal(b1-4)GlcNAc,-0.378
same,glycan array binding signal (z-score),[20],0.056
